Some of the results follow.
Experiments:
Experiment in all cases: glycan array binding signal (z-score within array); higher = stronger binding
Details in all cases: glycan notation: IUPAC condensed, linker removed; mutation: Q318A
[1] = biological target: Fuc(a1-2)Gal(b1-4)[Fuc(a1-3)]GlcNAc
Procedure, shortened: (§1)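 The Consortium for Functional Glycomics database supplied 3228 glycan arrays, of which those lacking an available protein sequence were dropped. The binding signal, a within-array Z-score, was averaged across arrays of the same protein sequence and across linkers. Negative scores can be read as non-binding.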

[2] = biological target: Fuc(a1-2)Gal(b1-4)[Fuc(a1-3)]GlcNAc(b1-2)Man(a1-3)[Fuc(a1-2)Gal(b1-4)[Fuc(a1-3)]GlcNAc(b1-2)Man(a1-6)]Man(b1-4)GlcNAc(b1-4)[Fuc(a1-6)]GlcNAc
Procedure, shortened: as §1

[3] = biological target: Fuc(a1-2)Gal(b1-4)[Fuc(a1-3)]GlcNAc(b1-2)[Fuc(a1-2)Gal(b1-4)[Fuc(a1-3)]GlcNAc(b1-4)]Man(a1-3)[Fuc(a1-2)Gal(b1-4)[Fuc(a1-3)]GlcNAc(b1-2)Man(a1-6)]Man(b1-4)GlcNAc(b1-4)GlcNAc
Procedure, shortened: as §1

[4] = biological target: Fuc(a1-2)Gal(b1-4)[Fuc(a1-3)]GlcNAc(b1-3)Gal(b1-4)[Fuc(a1-3)]GlcNAc
Procedure, shortened: as §1

[5] = biological target: Fuc(a1-2)Gal(b1-4)[Fuc(a1-3)]GlcNAc(b1-3)Gal(b1-4)[Fuc(a1-3)]GlcNAc(b1-3)Gal(b1-4)[Fuc(a1-3)]GlcNAc
Procedure, shortened: as §1

[6] = biological target: Fuc(a1-2)Gal(b1-4)[Fuc(a1-3)]GlcNAc(b1-3)GalNAc
Procedure, shortened: as §1

[7] = biological target: Fuc(a1-2)Gal(b1-4)[Fuc(a1-3)]GlcNAc(b1-3)[Neu5Ac(a2-6)Gal(b1-4)GlcNAc(b1-6)]Gal(b1-4)Glc
Procedure, shortened: as §1

[8] = biological target: Fuc(a1-2)Gal3S(b1-4)GlcNAc
Procedure, shortened: as §1

[9] = biological target: Fuc(a1-2)Gal6S(b1-3)GlcNAc
Procedure, shortened: as §1

[10] = biological target: Fuc(a1-2)Gal6S(b1-3)GlcNAc6S
Procedure, shortened: as §1

Fuc(a1-2)Gal6S(b1-4)Glc = biological target: Fuc(a1-2)Gal6S(b1-4)Glc
Procedure, shortened: as §1

[11] = biological target: Fuc(a1-2)Gal6S(b1-4)Glc6S
Procedure, shortened: as §1

Fuc(a1-2)[Gal(a1-3)]Gal = biological target: Fuc(a1-2)[Gal(a1-3)]Gal
Procedure, shortened: as §1

[12] = biological target: Fuc(a1-2)[Gal(a1-3)]Gal(b1-3)GalNAc
Procedure, shortened: as §1

[13] = biological target: Fuc(a1-2)[Gal(a1-3)]Gal(b1-3)GalNAc(b1-3)Gal(a1-4)Gal(b1-4)Glc
Procedure, shortened: as §1

[14] = biological target: Fuc(a1-2)[Gal(a1-3)]Gal(b1-3)GlcNAc
Procedure, shortened: as §1

[15] = biological target: Fuc(a1-2)[Gal(a1-3)]Gal(b1-3)GlcNAc(b1-2)Man(a1-3)[Fuc(a1-2)[Gal(a1-3)]Gal(b1-3)GlcNAc(b1-2)Man(a1-6)]Man(b1-4)GlcNAc(b1-4)GlcNAc
Procedure, shortened: as §1

[16] = biological target: Fuc(a1-2)[Gal(a1-3)]Gal(b1-3)GlcNAc(b1-2)Man(a1-3)[Fuc(a1-2)[Gal(a1-3)]Gal(b1-3)GlcNAc(b1-2)Man(a1-6)]Man(b1-4)GlcNAc(b1-4)[Fuc(a1-6)]GlcNAc
Procedure, shortened: as §1

[17] = biological target: Fuc(a1-2)[Gal(a1-3)]Gal(b1-3)GlcNAc(b1-3)GalNAc
Procedure, shortened: as §1

[18] = biological target: Fuc(a1-2)[Gal(a1-3)]Gal(b1-3)GlcNAc(b1-6)GalNAc
Procedure, shortened: as §1

[19] = biological target: Fuc(a1-2)[Gal(a1-3)]Gal(b1-4)Glc
Procedure, shortened: as §1

[20] = biological target: Fuc(a1-2)[Gal(a1-3)]Gal(b1-4)GlcNAc
Procedure, shortened: as §1

[21] = biological target: Fuc(a1-2)[Gal(a1-3)]Gal(b1-4)GlcNAc(b1-2)Man
Procedure, shortened: as §1

[22] = biological target: Fuc(a1-2)[Gal(a1-3)]Gal(b1-4)GlcNAc(b1-2)Man(a1-3)[Fuc(a1-2)[Gal(a1-3)]Gal(b1-4)GlcNAc(b1-2)Man(a1-6)]Man(b1-4)GlcNAc(b1-4)GlcNAc
Procedure, shortened: as §1

[23] = biological target: Fuc(a1-2)[Gal(a1-3)]Gal(b1-4)GlcNAc(b1-2)Man(a1-3)[Fuc(a1-2)[Gal(a1-3)]Gal(b1-4)GlcNAc(b1-2)Man(a1-6)]Man(b1-4)GlcNAc(b1-4)[Fuc(a1-6)]GlcNAc
Procedure, shortened: as §1

[24] = biological target: Fuc(a1-2)[Gal(a1-3)]Gal(b1-4)GlcNAc(b1-3)GalNAc
Procedure, shortened: as §1

[25] = biological target: Fuc(a1-2)[Gal(a1-3)]Gal(b1-4)GlcNAc(b1-3)[Fuc(a1-2)[Gal(a1-3)]Gal(b1-4)GlcNAc(b1-6)]GalNAc
Procedure, shortened: as §1

[26] = biological target: Fuc(a1-2)[Gal(a1-3)]Gal(b1-4)GlcNAc(b1-6)GalNAc
Procedure, shortened: as §1

[27] = biological target: Fuc(a1-2)[Gal(a1-3)]Gal(b1-4)[Fuc(a1-3)]Glc
Procedure, shortened: as §1

[28] = biological target: Fuc(a1-2)[Gal(a1-3)]Gal(b1-4)[Fuc(a1-3)]GlcNAc
Procedure, shortened: as §1

[29] = biological target: Fuc(a1-2)[Gal(a1-3)]Gal(b1-4)[Fuc(a1-3)]GlcNAc(b1-3)GalNAc
Procedure, shortened: as §1

[30] = biological target: Fuc(a1-2)[Gal(a1-4)]Gal(b1-4)GlcNAc
Procedure, shortened: as §1

[31] = biological target: Fuc(a1-2)[GalNAc(a1-3)]Gal
Procedure, shortened: as §1

[32] = biological target: Fuc(a1-2)[GalNAc(a1-3)]Gal(b1-3)GalNAc(a1-3)[Fuc(a1-2)]Gal(b1-4)GlcNAc
Procedure, shortened: as §1

[33] = biological target: Fuc(a1-2)[GalNAc(a1-3)]Gal(b1-3)GalNAc(b1-3)Gal(a1-4)Gal(b1-4)Glc
Procedure, shortened: as §1

[34] = biological target: Fuc(a1-2)[GalNAc(a1-3)]Gal(b1-3)GlcNAc
Procedure, shortened: as §1

[35] = biological target: Fuc(a1-2)[GalNAc(a1-3)]Gal(b1-3)GlcNAc(b1-2)Man(a1-3)[Fuc(a1-2)[GalNAc(a1-3)]Gal(b1-3)GlcNAc(b1-2)Man(a1-6)]Man(b1-4)GlcNAc(b1-4)GlcNAc
Procedure, shortened: as §1

[36] = biological target: Fuc(a1-2)[GalNAc(a1-3)]Gal(b1-3)GlcNAc(b1-2)Man(a1-3)[Fuc(a1-2)[GalNAc(a1-3)]Gal(b1-3)GlcNAc(b1-2)Man(a1-6)]Man(b1-4)GlcNAc(b1-4)[Fuc(a1-6)]GlcNAc
Procedure, shortened: as §1

B1: SUN4 (Saccharomyces cerevisiae), P53616 (protein)
chain: MGSSHHHHHHSSGLVPRGSHNGSIYGDLADFSGPYEKFEDGTIPCGQFPSGQGVIPISWLDEGGWSGVENTDTSTGGSCKEGSYCSYACQPGMSKTQWPSDQPSDGRSIGGLLCKDGYLYRSNTDTDYLCEWGVDAAYVVSELSNDVAICRTDYPGTENMVIPTYVQAGDSLPLTVVDQDTYYTWQGLKTSAAYYVNNAGISVEDACVWGSSSSGVGNWAPLNFGAGSSDGVAYLSLIPNPNNGNALNFNVKIVAADDSSTVNGECIYENGSFSGGSDGCTVSVTAGKAKFVLYN
- glycan array binding signal (z-score) [1]: -0.378
- glycan array binding signal (z-score) [2]: 0.091
- glycan array binding signal (z-score) [3]: 0.794
- glycan array binding signal (z-score) [4]: 0.391
- glycan array binding signal (z-score) [5]: -0.82
- glycan array binding signal (z-score) [6]: 0.031
- glycan array binding signal (z-score) [7]: -0.198
- glycan array binding signal (z-score) [8]: -1.06
- glycan array binding signal (z-score) [9]: 0.375
- glycan array binding signal (z-score) [10]: -0.342
- glycan array binding signal (z-score) (Fuc(a1-2)Gal6S(b1-4)Glc): -0.627
- glycan array binding signal (z-score) [11]: 0.386
- glycan array binding signal (z-score) (Fuc(a1-2)[Gal(a1-3)]Gal): -0.551
- glycan array binding signal (z-score) [12]: -0.213
- glycan array binding signal (z-score) [13]: 1.13
- glycan array binding signal (z-score) [14]: -0.361
- glycan array binding signal (z-score) [15]: 0.04
- glycan array binding signal (z-score) [16]: -0.384
- glycan array binding signal (z-score) [17]: -0.057
- glycan array binding signal (z-score) [18]: -0.909
- glycan array binding signal (z-score) [19]: -0.159
- glycan array binding signal (z-score) [20]: -0.125
- glycan array binding signal (z-score) [21]: -0.987
- glycan array binding signal (z-score) [22]: -0.077
- glycan array binding signal (z-score) [23]: -0.11
- glycan array binding signal (z-score) [24]: -0.334
- glycan array binding signal (z-score) [25]: 0.654
- glycan array binding signal (z-score) [26]: 0.123
- glycan array binding signal (z-score) [27]: 0.315
- glycan array binding signal (z-score) [28]: 0.706
- glycan array binding signal (z-score) [29]: -0.261
- glycan array binding signal (z-score) [30]: 0.015
- glycan array binding signal (z-score) [31]: -0.277
- glycan array binding signal (z-score) [32]: -1.05
- glycan array binding signal (z-score) [33]: 1.33
- glycan array binding signal (z-score) [34]: 0.186
- glycan array binding signal (z-score) [35]: 1.1
- glycan array binding signal (z-score) [36]: 0.048
